PubChem BioAssay AID1259424 | University of Nebraska Medical Center – 2018

- Test: 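Seek colon cancer survival genes behaving like KSR1, using a six-gene signature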 (primary screen)
- Cell system: human HCT116 colon cancer cells
- Reagents: siRNA pool against human genes, 50 nM
- Read-out: 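Log2 levels of six mRNAs (branched-DNA multiplex), adjusted by two reference genes and the non-targeting median, then scored against the average KSR1 knockdown pattern as Pearson r and euclidean distance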
- Direction: mean correlation with KSR1 profile and KSR1 correlation: higher = expression change more like KSR1 knockdown; mean distance from KSR1 profile: higher = expression change less like KSR1 knockdown
Shown is an unselected part of about 14,000 deposited reagents. 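Higher correlation or smaller distance means closer resemblance to KSR1 loss; control wells, including KSR1 knockdowns, recur on many plates.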 Further read-outs or replicates are left out here. Reagent sequences are not shown. Not given: the time to read-out.

The first 7 records, ahead of the listing:
no.	target	mean correlation with KSR1 profile	mean distance from KSR1 profile	KSR1 correlation, replicate 1
1	SH3GL1 (SH3 domain containing GRB2 like 1, endophilin A2)	0.474	2.01	0.486
2	PCDH11Y (protocadherin 11 Y-linked)	-0.0125	2.32	-0.00803
3	EPN2 (epsin 2)	0.15	2.02	0.2
4	RAD51D (RAD51 paralog D)	0.0477	2.84	-0.0581
5	CEACAM5 (CEA cell adhesion molecule 5)	-0.219	1.46	-0.414
6	MELK (maternal embryonic leucine zipper kinase)	0.0598	2.48	0.442
7	C9orf78 (chromosome 9 open reading frame 78)	0.76	1.32	0.767

The list itself, repeating the preview:
no.	target	mean correlation with KSR1 profile	mean distance from KSR1 profile	KSR1 correlation, replicate 1
1	SH3GL1 (SH3 domain containing GRB2 like 1, endophilin A2)	0.474	2.01	0.486
2	PCDH11Y (protocadherin 11 Y-linked)	-0.0125	2.32	-0.00803
3	EPN2 (epsin 2)	0.15	2.02	0.2
4	RAD51D (RAD51 paralog D)	0.0477	2.84	-0.0581
5	CEACAM5 (CEA cell adhesion molecule 5)	-0.219	1.46	-0.414
6	MELK (maternal embryonic leucine zipper kinase)	0.0598	2.48	0.442
7	C9orf78 (chromosome 9 open reading frame 78)	0.76	1.32	0.767
8	SORCS1 (sortilin related VPS10 domain containing receptor 1)	-0.412	2.08	-0.405
9	TBX3 (T-box transcription factor 3)	-0.294	1.74	0.118
10	CHD5 (chromodomain helicase DNA binding protein 5)	-0.228	3.03	-0.181
11	TRAF6 (TNF receptor associated factor 6)	-0.0976	1.65	-0.367
12	DHODH (dihydroorotate dehydrogenase (quinone))	0.625	1.64	0.373
13	SMC1A (structural maintenance of chromosomes 1A)	-0.322	3.5	-0.247
14	FAM107B (family with sequence similarity 107 member B)	0.511	1.83	0.356
15	MED31 (mediator complex subunit 31)	-0.625	1.55	-0.554
16	VIP (vasoactive intestinal peptide)	0.917	0.955	0.89
17	THYN1 (thymocyte nuclear protein 1)	0.588	1.95	0.12
18	PDIA2 (protein disulfide isomerase family A member 2)	0.106	2.25	0.0686
19	FZD3 (frizzled class receptor 3)	0.588	1.58	0.597
20	HS3ST3B1 (heparan sulfate-glucosamine 3-sulfotransferase 3B1)	0.0342	1.11	0.129
21	IGF1R (insulin like growth factor 1 receptor)	0.0959	3.21	0.275
22	HOXC9 (homeobox C9)	0.416	3.22	0.231
23	PIK3CA	0.553	0.973	0.803
24	LINC01101 (long independently transcribed non-coding RNA 1101)	-0.142	1.99	-0.0937
25	HESX1 (HESX homeobox 1)	0.307	2.57	0.37
26	EPO (erythropoietin)	0.425	1.18	0.622
27	HLA-C (major histocompatibility complex, class I, C)	-0.453	1.23	-0.364
28	RAB11B (RAB11B, member RAS oncogene family)	0.374	2.39	0.211
29	DNAL1 (dynein axonemal light chain 1)	0.568	1.73	0.303
30	CFAP43 (cilia and flagella associated protein 43)	0.515	2.42	0.436
31	ELSPBP1 (epididymal sperm binding protein 1)	-0.441	2.46	-0.485
32	FOXE3 (forkhead box E3)	0.36	1.87	0.273
33	MYOC (myocilin)	-0.0137	2.69	-0.138
34	ZCCHC10 (zinc finger CCHC-type containing 10)	0.184	2.56	0.286
35	NMU (neuromedin U)	-0.0481	1.72	-0.09
36	MMP2 (matrix metallopeptidase 2)	0.307	1.09	0.418
37	ARHGEF39 (Rho guanine nucleotide exchange factor 39)	-0.317	1.79	-0.288
38	TBX15 (T-box transcription factor 15)	-0.398	2.77	-0.285
39	ITPRID2 (ITPR interacting domain containing 2)	-0.468	4.77	-0.473
40	H4C11 (H4 clustered histone 11)	0.365	1.62	0.408
41	HSPA4 (heat shock protein family A (Hsp70) member 4)	0.144	1.58	0.198
42	KBTBD4 (kelch repeat and BTB domain containing 4)	-0.196	3.99	-0.233
43	CCNB3 (cyclin B3)	0.281	1.48	0.249
44	NBR2 (neighbor of BRCA1 lncRNA 2)	0.352	1.44	0.179
45	DNAH6 (dynein axonemal heavy chain 6)	-0.134	2.16	0.0484
46	IMPA1 (inositol monophosphatase 1)	0.172	1.38	0.317
47	MAP3K9 (mitogen-activated protein kinase kinase kinase 9)	0.197	3.45	0.308
48	NEUROG3 (neurogenin 3)	-0.254	1.81	-0.0831
49	RILPL2 (Rab interacting lysosomal protein like 2)	-0.633	2.72	-0.537
50	NOTCH2 (notch receptor 2)	0.272	1.85	0.282
51	TCP1 (t-complex 1)	0.276	3.74	0.354
52	CEACAM7 (CEA cell adhesion molecule 7)	0.408	1.43	0.441
53	KHDC1 (KH domain containing 1)	0.137	1.41	-0.295
54	XIAP (X-linked inhibitor of apoptosis)	0.368	1.04	0.315
55	ASRGL1 (asparaginase and isoaspartyl peptidase 1)	-0.182	1.53	-0.0145
56	PAN2 (poly(A) specific ribonuclease subunit PAN2)	-0.343	1.54	-0.204
57	MMS19 (MMS19 cytosolic iron-sulfur assembly component)	-0.423	2.15	-0.418
58	IL38 (interleukin 38)	0.0329	4.13	0.0694
59	CCN6 (cellular communication network factor 6)	-0.345	2.1	-0.135
60	LYAR (Ly1 antibody reactive)	-0.511	2.77	-0.601
61	CCL18 (C-C motif chemokine ligand 18)	-0.0285	1.32	0.374
62	PSKH2 (protein serine kinase H2)	-0.192	2.73	-0.0836
63	EPHB3 (EPH receptor B3)	0.356	4.21	-0.0846
